Experimental findings from paper PMC4833305 are described below.

These are yes or no findings as the source states them, for the method shown. Some entries that bind do so weakly or less than the wild type.

The experiment addresses NEMO-FLAG (human), Q9Y6K9. Nature of the experiment: co-purification of the complex from cells with a FLAG-tagged subunit; IKK complex purified from NEMO-FLAG knock-in cells; silver staining and immunoblotting of the purified complex. The note with it: remark: other sources report otherwise. For orientation: Immunoblotting shows a protein as a band on a membrane.

B1: IKKα, O15111 1-745 (enzyme)
chain: MERPPGLRPGAGGPWEMRERLGTGGFGNVCLYQHRELDLKIAIKSCRLELSTKNRERWCHEIQIMKKLNHANVVKACDVPEELNILIHDVPLLAMEYCSGGDLRKLLNKPENCCGLKESQILSLLSDIGSGIRYLHENKIIHRDLKPENIVLQDVGGKIIHKIIDLGYAKDVDQGSLCTSFVGTLQYLAPELFENKPYTATVDYWSFGTMVFECIAGYRPFLHHLQPFTWHEKIKKKDPKCIFACEEMSGEVRFSSHLPQPNSLCSLVVEPMENWLQLMLNWDPQQRGGPVDLTLKQPRCFVLMDHILNLKIVHILNMTSAKIISFLLPPDESLHSLQSRIERETGINTGSQELLSETGISLDPRKPASQCVLDGVRGCDSYMVYLFDKSKTVYEGPFASRSLSDCVNYIVQDSKIQLPIIQLRKVWAEAVHYVSGLKEDYSRLFQGQRAAMLSLLRYNANLTKMKNTLISASQQLKAKLEFFHKSIQLDLERYSEQMTYGISSEKMLKAWKEMEEKAIHYAEVGVIGYLEDQIMSLHAEIMELQKSPYGRRQGDLMESLEQRAIDLYKQLKHRPSDHSYSDSTEMVKIIVHTVQSQDRVLKELFGHLSKLLGCKQKIIDLLPKVEVALSNIKEADNTVMFMQGKRQKEIWHLLKIACTQSSARSLVGSSLEGAVTPQTSAWLPPTSAEHDHSLSCVVTPQDGETSAQMIEENLNCLGHLSTIIHEANEEQGNSMMNLDWSWLTE
In the case of B1, the binding entry was “binds”.
